Experimental data as given in patent publication US11083197B2, “Herbicidal composition comprising chromone derivatives and a method for weed control” (INVESTIGACIONES BIOLÓGICAS EN AGROQUÍMICOS ROSARIO S.A., priority 2015, dated 2021).
Some entries share one result that the patent states for a list of compounds.

System: onion root tips
Assay: Cell death determination by Evans blue staining, root tips
Assay type: cell-based, Allium cepa
Conditions: 300 μM; 4 days
Description: To evaluate cell death in roots, onion seeds were germinated and treated as described in postemergence assay with weed species. Onion seedlings were exposed to different doses of compounds of formulas III and IV (0, 100 and 300 μM) during 4 days. For the experiment with leaf disks 3-weeks-cucumber plants were used. One disk (1 cm) was placed in each well of a 12-well plate together with 1 mL of a 2% w/v sucrose/1 mM MES, pH 6.5 solution containing each of the compounds tested at the appropriate concentration (0, 100 or 300 μM) and acetone (1% v/v). Each assay was performed with leaf disks from different plants. Plates were sealed with Parafilm and incubated in a growth chamber at 21-27° C. with a 16/8 h light/dark cycle for 7 days.
Cell death was determined by Evans blue staining.^26 Root tips (5-mm sections) and leaf disks were incubated for 30 min in 0.25% w/v Evans blue aqueous solution at 25° C. on a rotary shaker. After staining, unbound dye was removed by extensive washing with deionized water. […] The resulting suspension was centrifuged for 20 min at 20,000 g and the supernatant was used for dye quantification by monitoring the absorbance at 600 and 680 nm. Relative cell death was expressed as A600 for root tips and A600/A680 ratios for leaf disks.

Structure (SMILES): COc1c2ccoc2cc2oc(C)cc(=O)c12 [Formula IV, 4-methoxy-7-methyl-5H-furo[3,2-g]chromen-5-one]
- increase in relative cell death relative to the control conditions: 3- to 4 fold

Structure (SMILES): COc1c2occc2c(OC)c2c(=O)cc(C)oc12 [Formula III, 4,9-dimethoxy-7-methyl-5H-furo[3,2-g]chromen-5-one]
- increase in relative cell death relative to the control conditions: 3- to 4 fold
